According to PMC5833439:
These are yes or no findings as the source states them, for the method shown. Binding seen in cells or lysates may run through a third protein. Binding calls can cover weak binding; strength is not graded here.

Biological target: T1, decidual protein induced by progesterone (DEPP) (UniProt Q9NTK1)
T1 sequence: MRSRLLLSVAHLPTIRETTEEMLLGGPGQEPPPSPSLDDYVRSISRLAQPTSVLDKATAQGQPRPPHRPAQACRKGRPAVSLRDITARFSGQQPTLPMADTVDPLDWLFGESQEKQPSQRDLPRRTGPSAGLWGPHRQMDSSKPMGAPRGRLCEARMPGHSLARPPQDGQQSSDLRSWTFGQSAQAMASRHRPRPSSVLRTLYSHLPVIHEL
Test: co-IP; DEPP immunoprecipitated (anti-DEPP in the text; Flag-DEPP immunoprecipitates in the legend) from HCT116 cells with or without treatment with baicalin or siDEPP; immunoblot for Ras

binding: binds
Substance: Ras (human (endogenous in HCT116))
